We go through one molecule from paper doi:10.1101/2022.09.16.506679.

No constants are given. Whether binding was seen depends on the method and setting. Sequences can lack the tags named with a protein.

The target of this assay is EL222 wild type (light-oxygen-voltage transcription factor from Erythrobacter litoralis) (Erythrobacter litoralis) (UniProt Q2NB98). The assay is described as follows: SEC. Background: In gel filtration, larger molecules generally elute earlier.

B1: EL222 wild type (light-oxygen-voltage transcription factor from Erythrobacter litoralis) (protein, UniProt Q2NB98 17-225)
chain: GADDTRVEVQPPAQWVLDLIEASPIASVVSDPRLADNPLIAINQAFTDLTGYSEEECVGRNCRFLAGSGTEPWLTDKIRQGVREHKPVLVEILNYKKDGTPFRNAVLVAPIYDDDDELLYFLGSQVEVDDDQPNMGMARRERAAEMLKTLSPRQLEVTTLVASGLRNKEVAARLGLSEKTVKMHRGLVMEKLNLKTSADLVRIAVEAGI
Regarding B1, the binding entry is reported as “no binding”.
